Experimental data taken from PMC6303017, “Effects of RNA structure and salt concentration on the affinity and kinetics of interactions between pentatricopeptide repeat proteins and their RNA ligands”.
Construct, isoform or probe ends are uncertain for at least one entry. No signal at the amounts used counts as a negative. At least one verdict rests on a figure or table, not on a statement of the authors. Where a protein sequence is shown, tags need not be part of it. For some assays here: A weaker result is weaker than the reference pair of the same experiment.

Experiments:
PPR10 = molecular target: T1, PPR10 (UniProt B8Y6I0); assay: SPR; conditions: SPR: 100 mM HEPES pH 7.5, 150 mM NaCl, 3 mM EDTA, 1 mM 2-mercaptoethanol, 0.005% P20, recombinant protein, protein details: MBP fusion, MBP cleaved off, 6-carbon linker
T1 sequence (looked up, limits assumed): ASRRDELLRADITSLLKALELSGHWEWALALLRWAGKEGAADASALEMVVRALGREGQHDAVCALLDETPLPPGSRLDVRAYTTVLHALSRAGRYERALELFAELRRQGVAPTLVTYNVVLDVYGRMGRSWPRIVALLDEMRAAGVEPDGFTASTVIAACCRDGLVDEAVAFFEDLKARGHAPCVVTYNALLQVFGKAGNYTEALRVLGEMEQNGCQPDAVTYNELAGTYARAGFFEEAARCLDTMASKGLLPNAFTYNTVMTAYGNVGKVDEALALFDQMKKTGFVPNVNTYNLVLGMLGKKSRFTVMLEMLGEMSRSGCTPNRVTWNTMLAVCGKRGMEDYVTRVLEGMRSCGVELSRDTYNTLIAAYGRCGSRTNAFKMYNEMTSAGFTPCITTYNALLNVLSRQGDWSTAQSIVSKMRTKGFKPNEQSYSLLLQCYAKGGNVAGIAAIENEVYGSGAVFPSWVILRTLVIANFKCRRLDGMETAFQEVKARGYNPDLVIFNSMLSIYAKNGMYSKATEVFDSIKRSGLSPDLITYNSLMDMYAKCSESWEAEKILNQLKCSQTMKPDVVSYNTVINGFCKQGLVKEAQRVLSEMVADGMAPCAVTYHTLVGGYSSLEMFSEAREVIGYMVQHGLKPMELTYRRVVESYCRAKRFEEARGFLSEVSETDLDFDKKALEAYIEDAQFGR

HCF152 = molecular target: T2, HCF152 (UniProt Q9SF38); assay: SPR; conditions: specificity negative control; SPR: 100 mM HEPES pH 7.5, 150 mM NaCl, 3 mM EDTA, 1 mM 2-mercaptoethanol, 0.005% P20; recombinant protein; protein details: MBP fusion, MBP cleaved off; label: 3' biotin, 6-carbon linker
T2 sequence (looked up, limits assumed): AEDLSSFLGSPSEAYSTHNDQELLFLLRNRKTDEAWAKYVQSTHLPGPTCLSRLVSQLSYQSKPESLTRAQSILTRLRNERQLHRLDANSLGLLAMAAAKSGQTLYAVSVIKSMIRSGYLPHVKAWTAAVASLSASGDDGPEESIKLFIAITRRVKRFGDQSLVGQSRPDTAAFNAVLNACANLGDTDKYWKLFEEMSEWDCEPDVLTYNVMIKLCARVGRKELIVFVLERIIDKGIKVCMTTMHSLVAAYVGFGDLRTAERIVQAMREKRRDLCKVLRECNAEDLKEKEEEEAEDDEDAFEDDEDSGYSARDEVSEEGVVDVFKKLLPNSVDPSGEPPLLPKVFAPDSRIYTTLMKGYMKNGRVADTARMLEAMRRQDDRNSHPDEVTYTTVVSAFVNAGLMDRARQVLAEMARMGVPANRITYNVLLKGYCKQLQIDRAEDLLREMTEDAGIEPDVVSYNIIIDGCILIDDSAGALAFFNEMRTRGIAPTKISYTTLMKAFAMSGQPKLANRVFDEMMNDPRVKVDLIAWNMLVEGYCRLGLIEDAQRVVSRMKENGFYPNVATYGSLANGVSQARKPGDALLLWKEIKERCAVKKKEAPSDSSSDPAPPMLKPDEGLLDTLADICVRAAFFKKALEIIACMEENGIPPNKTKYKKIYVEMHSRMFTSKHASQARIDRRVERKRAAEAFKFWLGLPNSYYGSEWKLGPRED

UGGUAGUUCGACGUGGAUUUU [petB SPR RNA]: no binding (PPR10; specificity negative control, label: 3' biotin).
“GAUUGUAUCCUUAACCAUUUCUUUU [atpH SPR RNA]”: binds more weakly (PPR10; 300 mM NaCl vs 75 mM: on-rate ~100-fold lower, off-rate ~4-fold higher, label: 3' biotin); no binding (HCF152).
“ACAAUGUUUUUUAUUGUAUCCUUAACCAUUUCUUU [5'-6bp SPR RNA]”: binds more weakly (PPR10; 150 mM NaCl, on-rate lower and off-rate higher several fold, label: 3' biotin).
“AUUGUAUCCUUAACCAUUUCUUUUUUUUUGAAAGA [3'-6bp SPR RNA]”: binds more weakly (PPR10; 150 mM NaCl, RNA tethered at 5' end, label: 5' biotin).
